Paper PMC5357849
These are yes or no findings as the source states them, for the method shown. Binding calls can cover weak binding; strength is not graded here. Where a sequence is shown, tags or fusion partners need not be part of it.

T1: AtHIR1 (BD fusion) (Arabidopsis thaliana) (UniProt Q9FM19)
T1 sequence: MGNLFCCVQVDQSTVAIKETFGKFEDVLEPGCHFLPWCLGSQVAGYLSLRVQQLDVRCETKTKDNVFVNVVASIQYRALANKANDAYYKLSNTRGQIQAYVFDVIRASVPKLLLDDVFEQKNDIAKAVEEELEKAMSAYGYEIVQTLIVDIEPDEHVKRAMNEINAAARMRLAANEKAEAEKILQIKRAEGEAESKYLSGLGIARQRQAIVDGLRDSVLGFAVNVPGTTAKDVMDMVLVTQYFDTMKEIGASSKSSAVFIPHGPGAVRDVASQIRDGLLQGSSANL

T2: AtHIR2 (BD fusion) (Arabidopsis thaliana) (UniProt Q9CAR7)
T2 sequence: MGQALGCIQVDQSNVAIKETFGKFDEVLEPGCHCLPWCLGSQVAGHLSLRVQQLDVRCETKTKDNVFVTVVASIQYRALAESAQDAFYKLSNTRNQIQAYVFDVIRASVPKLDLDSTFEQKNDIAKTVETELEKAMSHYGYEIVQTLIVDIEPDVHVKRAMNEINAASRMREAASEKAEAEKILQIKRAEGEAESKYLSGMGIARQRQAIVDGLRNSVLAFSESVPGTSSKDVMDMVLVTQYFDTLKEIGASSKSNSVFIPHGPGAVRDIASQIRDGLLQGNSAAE

T3: AtHIR3 (BD fusion) (Arabidopsis thaliana) (UniProt Q9SRH6)
T3 sequence: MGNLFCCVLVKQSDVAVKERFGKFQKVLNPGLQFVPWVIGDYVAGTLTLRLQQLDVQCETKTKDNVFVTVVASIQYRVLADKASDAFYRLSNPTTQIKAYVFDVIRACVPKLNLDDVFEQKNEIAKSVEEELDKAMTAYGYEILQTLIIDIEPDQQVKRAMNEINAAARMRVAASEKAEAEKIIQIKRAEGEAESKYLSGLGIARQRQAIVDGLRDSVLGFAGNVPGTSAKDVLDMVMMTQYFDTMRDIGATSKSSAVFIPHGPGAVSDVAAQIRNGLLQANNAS

T4: AtHIR4 (BD fusion) (Arabidopsis thaliana) (UniProt Q9FHM7)
T4 sequence: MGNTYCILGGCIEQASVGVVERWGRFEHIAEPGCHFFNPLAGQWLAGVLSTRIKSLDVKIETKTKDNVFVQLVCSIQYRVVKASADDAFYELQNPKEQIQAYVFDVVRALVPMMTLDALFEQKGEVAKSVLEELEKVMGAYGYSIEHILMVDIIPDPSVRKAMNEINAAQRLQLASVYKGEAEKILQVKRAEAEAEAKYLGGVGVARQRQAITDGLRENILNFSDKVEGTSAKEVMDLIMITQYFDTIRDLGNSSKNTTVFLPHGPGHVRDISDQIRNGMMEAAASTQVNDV


Assays:
[1] = biological target: T1, AtHIR1 (BD fusion) (Arabidopsis thaliana); assay: two-hybrid; HIR-BD (pGBT9) as bait and JAZ-AD (pGAD424) as prey co-transformed into Y2HGOLD yeast, 30 °C; growth on -Leu/-Trp/-His/-Ade medium with X-alpha-gal
[2] = biological target: T2, AtHIR2 (BD fusion) (Arabidopsis thaliana); assay: as above
[3] = biological target: T3, AtHIR3 (BD fusion) (Arabidopsis thaliana); assay: as above
[4] = biological target: T4, AtHIR4 (BD fusion) (Arabidopsis thaliana); assay: as above
AtJAZ9-HIS (Arabidopsis) = assay: pull-down; purified JAZ-HIS and HIR-GST proteins mixed, 1 h at 4 °C, 80 rpm, recovered with a His purification kit; Western blot with anti-His and anti-GST; both purified
AtJAZ3-HIS (Arabidopsis) = assay: as above

| binding [1] | binding [2] | binding [3] | binding [4] | binding (AtJAZ9-HIS (Arabidopsis)) | binding (AtJAZ3-HIS (Arabidopsis)) | Molecule |
| --- | --- | --- | --- | --- | --- | --- |
| binds | no binding | no binding | binds | – | – | AtJAZ4 (AD fusion) (Arabidopsis) |
| binds | binds | binds | binds | – | – | AtJAZ3 (AD fusion) (Arabidopsis) |

The remaining lines, values behind:

| Molecule | binding [1] | binding [2] | binding [3] | binding [4] | binding (AtJAZ9-HIS (Arabidopsis)) | binding (AtJAZ3-HIS (Arabidopsis)) |
| --- | --- | --- | --- | --- | --- | --- |
| AtJAZ9 (AD fusion) (Arabidopsis) | binds | no binding | no binding | binds | – | – |
| AtHIR1-GST (protein, UniProt Q9FM19 1-286) MGNLFCCVQVDQSTVAIKETFGKFEDVLEPGCHFLPWCLGSQVAGYLSLRVQQLDVRCETKTKDNVFVNVVASIQYRALANKANDAYYKLSNTRGQIQAYVFDVIRASVPKLLLDDVFEQKNDIAKAVEEELEKAMSAYGYEIVQTLIVDIEPDEHVKRAMNEINAAARMRLAANEKAEAEKILQIKRAEGEAESKYLSGLGIARQRQAIVDGLRDSVLGFAVNVPGTTAKDVMDMVLVTQYFDTMKEIGASSKSSAVFIPHGPGAVRDVASQIRDGLLQGSSANL | – | – | – | – | binds | binds |
